PubChem BioAssay AID1671195, Yale University, 2021

Purpose: 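Regulators of LDL receptor activity judged by labelled LDL uptake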 (primary screen)
Cells: human Huh7 hepatoma cells
Knock-down reagent: siRNA pool against human genes, 18 nM
Duration: about 2 to 2.5 days of knockdown, then 8 h LDL uptake
Challenge: DiI-labelled LDL at 30 µg/ml for 8 h, in lipoprotein-deficient serum medium
Measured: 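Per-cell DiI-LDL intensity by automated imaging; well means scaled to the plate median and given as a robust z-score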
Direction: robust z-score: higher = more LDL uptake after knockdown
Active means: 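a gene counts as active if at least two replicate z-scores exceed ±2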
This is a random part of about 22,000 deposited reagents. In the full data, about 1,510 (6.9%) were called active. 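Active includes knockdowns raising or lowering LDL uptake; positive z-scores mean more uptake, negative mean less.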 Entries without a mark were called inactive.

The opening 6 records, ahead of the listing:
target gene	robust z-score, replicate 1	robust z-score, replicate 2	robust z-score, replicate 3
FBXO27	0.253	-1.78	-0.398
PDSS2	0.407	-0.244	0.826
RGS2	-0.23	0.393	-2.42
NACA2	0.306	0.585	0.45
SEC14L5	0.828	2.23	-0.222
ZSCAN1	4.89 (active)	4.23	4.38

The list itself, from the start:
target gene	robust z-score, replicate 1	robust z-score, replicate 2	robust z-score, replicate 3
FBXO27	0.253	-1.78	-0.398
PDSS2	0.407	-0.244	0.826
RGS2	-0.23	0.393	-2.42
NACA2	0.306	0.585	0.45
SEC14L5	0.828	2.23	-0.222
ZSCAN1	4.89 (active)	4.23	4.38
ZNF710	0.916	1.2	1.45
KLHL23	-1	-1.6	-0.805
ACAN	-0.959	-0.315	-1.22
CDH17	-1.3	-0.629	-0.921
MYO15A	0.16	1.05	-0.168
OCIAD2	-0.986	-1.32	-1.27
PNPLA6	-1.4	-1.64	-1.22
RARRES1	0.607	-0.0992	-0.486
RPS6KA3	-0.154	-0.401	0.351
MIR663AHG	0.393	0.297	0.966
RPSAP2	-1.14	-1.17	-1.33
HTR3E	-0.856	-0.675	-1.21
TNS1	-0.832	-0.123	-0.305
CLDN15	0.497	0.435	0.387
PRSS38	-1.29	-0.58	-1.04
LOC441836 (retired record)	-1.41	-1.45	-1.62
ERVK-6	-0.0793	-0.294	-0.616
GOLGA5	-0.801	-0.903	1.68
LAMA3	2.14	1.69	1.35
OPLAH	-0.151	-0.091	0.156
POSTN	0.147	-0.618	-0.297
TSPAN6	1.59	-0.606	-0.303
SALL3	0.818	0.263	0.34
UBE2F	0.085	0.815	1.51
LOC441499 (retired record)	-1.26	-1.02	-0.843
TMEM70	0.201	-0.0513	0.00619
KIAA1755	-0.672	-0.328	-0.586
MRPL39	3.09	1.96	1.93
ARPC1A	2.37	1.77	1.58
ZNF709	1.05	0.728	0.953
FHL1	0.0275	-0.508	-0.611
MYF5	0.524	0.783	-0.476
CLNK	1.82 (active)	3.41	3.32
RSAD2	-0.371	-0.227	-0.293
METTL15P1	0.426	0.202	0.549
KLHDC2	1.27	-0.086	-0.143
LLGL2	0.514	-0.00736	-0.665
TMPRSS6	-0.622	0.235	-1
FUT1	0.503	-0.0579	0.514
ACBD4	-0.552	-0.379	-0.206
LRRC39	0.373	0.218	-0.691
SYT8	-1.42	-0.921	-1.15
SUOX	-0.168	1.17	0.0455
SULF1	-1.35	-1.28	-0.663
GPR171	2.62 (active)	2.26	2.23
PARK7	-0.455	-0.0393	-0.223
GRM6	0.526	-0.184	0.0509
DDIT4L	0.124	-0.738	-0.793
NEIL2	-0.294	-0.143	-0.214
BMP2K	-0.052	0.235	-0.000363
XYLT2	-2 (active)	-2.16	-1.96
FRS3	0.87	0.584	0.836
DYNLL1P3	-1.63	-1.57	-1.37
MOCS1	-1.52	-1.36	-1.05
CLCN1	0.137	-0.823	0.273
HLA-B	-1.09	-0.42	-0.99
ALG1	-0.0675	0.222	-0.641
ELAVL3	1.54	1.58	2.16
NPIPB2	-2.03 (active)	-2.01	-2.21
RUSC1-AS1	-0.124	-0.481	-0.572
HIRA	-0.278	0.61	-0.306
LOC145780 (retired record)	3.55 (active)	2.54	3.4
